The target in one data set is APOBEC3A (commercial) (UniProt P31941). The experiment in a line: activity assay. The note with it: poisoned primer assay; weak activity on RNA; purified recombinant protein; protein details: New England Biolabs.
The next data set relates to anti-m5C antibody Ab16. The data set is described as follows: pull-down. To be noted: purified native protein, protein details: Thermo Fisher cat. no. MA5-24694, label: 5'-FAM.
The subject of another data set is anti-m6A antibody Ab05. The experiment in a line: pull-down. The note with it: purified native protein, protein details: Synaptic Systems cat. no. 345E11, label: 5'-FAM.
Data set [1] concerns anti-inosine antibody Ab10. The data set is described as follows: pull-down. To be noted: off-target in mixture, purified native protein, protein details: Diagenode cat. no. C15200251, label: 5'-FAM.

Amino acid sequences for entries named in this document (tags omitted). A change or cut given only in a name is not applied to a line headed by its entry.
UniProt P31941: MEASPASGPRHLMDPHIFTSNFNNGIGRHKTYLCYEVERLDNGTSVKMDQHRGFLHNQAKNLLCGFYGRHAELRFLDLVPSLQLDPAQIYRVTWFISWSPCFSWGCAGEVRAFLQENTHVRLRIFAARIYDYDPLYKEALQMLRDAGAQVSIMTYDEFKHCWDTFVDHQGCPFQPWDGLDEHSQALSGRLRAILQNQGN

The comparison behind a weaker result is the experiment's own reference, which may not be listed here. For some of these results: For at least one entry, the source does not settle the construct or the ends of the probe.

These results are taken from patent US20240384326.

As for “AGAACAGAACAGAACAGAUGAUAGGAAGGAUGAAGGUGAGU [PPA C template, RNA]”, in the data set with APOBEC3A (commercial), the “activity on this sequence” value is “less active”.

“CGUCGGCAGCGUCAGAUGAUAUUCGAAGUAUGAC [m5C RNA target]”: the binding result in the data set on anti-m5C antibody Ab16 (m5C, protein G beads, mixture of targets, specificity 3 to 44 over N30 across antibodies) is “binds”; in the data set on anti-m6A antibody Ab05 (m5C, off-target in mixture), “binds more weakly”; in data set [1] (m5C), “binds more weakly”.

“UCGUCGGCAGCGUCAGAUGCAUAAGGUCAAUAUUAAGUAUAGACTGAGTG [m6A RNA target with 3' 8b DNA spacer]”: the binding result was “binds more weakly” with anti-m5C antibody Ab16 (m6A, RNA with 3' DNA ACTGAGTG [m6A at 29, RNA 1-42, DNA 43-50], off-target in mixture, letters built from the parent sequence and the stated change); “binds” in the data set with anti-m6A antibody Ab05 (m6A, RNA with 3' DNA ACTGAGTG [m6A at 29, RNA 1-42, DNA 43-50], protein G beads, mixture of targets, specificity 3 to 44 over N30 across antibodies, letters built from the parent sequence and the stated change); “binds more weakly” in data set [1] (m6A, RNA with 3' DNA ACTGAGTG [m6A at 29, RNA 1-42, DNA 43-50], letters built from the parent sequence and the stated change).
